# Results from patent US20260042731A1, “(2,4-DICHLOROPHENOXY)ACETIC ACID ANALOGS” (CORTEVA AGRISCIENCE LLC, priority 2022, published 2026).
# Several values for one entry are separate records, joined by “and”; a condition that tells them apart may be missing. Equal values may be shown once. At least one read-out could not be matched to a standard name with certainty.
# Legend:
# Assay in all cases: Greenhouse post-emergence mixture trials, percent visual control
# Format in all cases: in vivo
# [1] = tested on: Corn (ZEAMX)
# [2] = tested on: Common Lambsquarters (CHEAL); conditions: 21 DAA
# [3] = tested on: Velvetleaf (ABUTH); conditions: 21 DAA, Trial Bridge 3
# [4] = tested on: Tall Waterhemp (AMATA)
# [5] = tested on: Horseweed (ERICA); conditions: 21 DAA
# [6] = 21 DAA, compound 1120 g ae/ha, no mixing partner, Trial Bridge 3
structure (smiles),measurement,setting,value
O=C(COc1ccc(Cl)cc1Cl)Nc1cccnc1 [Compound D27],% Control,"[1]; 21 DAA, compound 560 g ae/ha + Sulfentrazone 130 g ai or ae/ha, Trial Bridge 3",85% and 60%
same,% Control,"[1]; 21 DAA, compound 560 g ae/ha + Sulfentrazone 347 g ai or ae/ha, Trial Bridge 3",60% and 40% and 75%
same,% Control,"[1]; 21 DAA, compound 1120 g ae/ha + Sulfentrazone 130 g ai or ae/ha, Trial Bridge 3",80% and 75%
same,% Control,"[1]; 21 DAA, compound 1120 g ae/ha + Sulfentrazone 347 g ai or ae/ha, Trial Bridge 3",90% and 70% and 75%
same,% Control,[1]; [6],10%
same,% Control,"[1]; Trial Bridge 1, 21 DAA, compound 560 g ae/ha + Glufosinate 600 g ai or ae/ha",15% and 5%
same,% Control,"[1]; Trial Bridge 1, 21 DAA, compound 560 g ae/ha + Glyphosate 1120 g ai or ae/ha",70% and 65%
same,% Control,"[1]; Trial Bridge 1, 21 DAA, compound 560 g ae/ha + Mesotrione 150 g ai or ae/ha",5% and 10%
same,% Control,"[1]; Trial Bridge 1, 21 DAA, compound 560 g ae/ha + diclosulam 35 g ai or ae/ha",65% and 70%
same,% Control,"[1]; Trial Bridge 1, 21 DAA, compound 1120 g ae/ha + Arylex 5 g ai or ae/ha",10% and 15%
same,% Control,"[1]; Trial Bridge 1, 21 DAA, compound 1120 g ae/ha + Glufosinate 600 g ai or ae/ha",40% and 35%
same,% Control,"[1]; Trial Bridge 1, 21 DAA, compound 1120 g ae/ha + Glyphosate 1120 g ai or ae/ha",70% and 99%
same,% Control,"[1]; Trial Bridge 1, 21 DAA, compound 1120 g ae/ha + Mesotrione 150 g ai or ae/ha",5% and 10% and 15%
same,% Control,"[1]; Trial Bridge 1, 21 DAA, compound 1120 g ae/ha + diclosulam 35 g ai or ae/ha",65% and 60%
same,% Control,"[1]; Trial Bridge 1, 21 DAA, compound 1120 g ae/ha, no mixing partner",10% and 15% and 5%
same,% Control,"[1]; Trial Bridge 2, compound 560 g ae/ha + Saflufenacil 25 g ai or ae/ha, 21 DAA",40% and 60% and 50%
same,% Control,"[1]; Trial Bridge 2, compound 560 g ae/ha + Saflufenacil 75 g ai or ae/ha, 21 DAA",75% and 50% and 80%
same,% Control,"[1]; Trial Bridge 2, compound 560 g ae/ha + Trifludimoxazin 12.5 g ai or ae/ha, 21 DAA",40% and 20% and 25%
same,% Control,"[1]; Trial Bridge 2, compound 560 g ae/ha, mixing partner none, 21 DAA",15% and 5%
same,% Control,"[1]; Trial Bridge 2, compound 1120 g ae/ha + Saflufenacil 75 g ai or ae/ha, 21 DAA",90% and 60% and 75%
same,% Control,"[1]; Trial Bridge 2, compound 1120 g ae/ha + Trifludimoxazin 12.5 g ai or ae/ha, 21 DAA",20% and 40% and 30%
same,% Control,"[2]; Trial Bridge 2, compound 560 g ae/ha, no mixing partner",100%
same,% Control,"[2]; Trial Bridge 2, compound 1120 g ae/ha, no mixing partner",100%
same,% Control,"[2]; Trial Bridge 1, compound 560 g ae/ha + Glufosinate 600 g ai or ae/ha",100% and 98%
same,% Control,"[2]; Trial Bridge 1, compound 560 g ae/ha + Glyphosate 1120 g ai or ae/ha",95% and 100% and 97%
same,% Control,"[2]; Trial Bridge 1, compound 560 g ae/ha + diclosulam 35 g ai or ae/ha",90% and 95%
same,% Control,"[2]; Trial Bridge 1, compound 560 g ae/ha, no mixing partner",90%
same,% Control,"[2]; Trial Bridge 1, compound 1120 g ae/ha + Glyphosate 1120 g ai or ae/ha",95% and 99% and 100%
same,% Control,"[2]; Trial Bridge 1, compound 1120 g ae/ha + diclosulam 35 g ai or ae/ha",95% and 100%
same,% Control,"[2]; Trial Bridge 1, compound 1120 g ae/ha, no mixing partner",98%
same,% Control,"[2]; Trial Bridge 3, compound 560 g ae/ha, no mixing partner",92% and 100%
same,% Control,"[2]; Trial Bridge 3, compound 1120 g ae/ha, no mixing partner",95% and 97%
same,% Control,[3]; compound 560 g ae/ha + Sulfentrazone 130 g ai/ha,99% and 100%
same,% Control,"[3]; compound 560 g ae/ha, no mixing partner",99% and 95%
same,% Control,"[3]; compound 1120 g ae/ha, no mixing partner",97% and 95%
same,% Control,"[4]; 21 DAA, compound 560 g ae/ha + Sulfentrazone 130 g ai/ha, Trial Bridge 3",100%
same,% Control,"[4]; 21 DAA, compound 560 g ae/ha + Sulfentrazone 347 g ai/ha, Trial Bridge 3",100%
same,% Control,"[4]; 21 DAA, compound 560 g ae/ha, no mixing partner, Trial Bridge 3",100% and 95%
same,% Control,"[4]; 21 DAA, compound 1120 g ae/ha + Sulfentrazone 130 g ai/ha, Trial Bridge 3",100%
same,% Control,[4]; [6],100%
same,% Control,"[4]; Trial Bridge 1, 21 DAA, compound 560 g ae/ha, mixing partner none",100%
same,% Control,"[4]; Trial Bridge 1, 21 DAA, compound 1120 g ae/ha, mixing partner none",100%
same,% Control,"[4]; Trial Bridge 1, compound 560 g ae/ha + Arylex 5 g ai or ae/ha, 21 DAA",100%
same,% Control,"[4]; Trial Bridge 1, compound 560 g ae/ha + Glufosinate 600 g ai or ae/ha, 21 DAA",100%
same,% Control,"[4]; Trial Bridge 1, compound 560 g ae/ha + Glyphosate 1120 g ai or ae/ha, 21 DAA",100%
same,% Control,"[4]; Trial Bridge 1, compound 560 g ae/ha + Mesotrione 150 g ai or ae/ha, 21 DAA",100%
same,% Control,"[4]; Trial Bridge 1, compound 560 g ae/ha + diclosulam 35 g ai or ae/ha, 21 DAA",100% and 99%
same,% Control,"[4]; Trial Bridge 1, compound 1120 g ae/ha + Arylex 5 g ai or ae/ha, 21 DAA",95% and 100%
same,% Control,"[4]; Trial Bridge 1, compound 1120 g ae/ha + Glufosinate 600 g ai or ae/ha, 21 DAA",100%
same,% Control,"[4]; Trial Bridge 1, compound 1120 g ae/ha + Glyphosate 1120 g ai or ae/ha, 21 DAA",100% and 80%
same,% Control,"[4]; Trial Bridge 1, compound 1120 g ae/ha + Mesotrione 150 g ai or ae/ha, 21 DAA",100%
same,% Control,"[4]; Trial Bridge 1, compound 1120 g ae/ha + diclosulam 35 g ai or ae/ha, 21 DAA",100%
same,% Control,"[4]; Trial Bridge 1, compound 1120 g ae/ha, no mixing partner, 21 DAA",100%
same,% Control,"[4]; Trial Bridge 2, 21 DAA, compound 560 g ae/ha + Saflufenacil 25 g ai or ae/ha",100%
same,% Control,"[4]; Trial Bridge 2, 21 DAA, compound 560 g ae/ha + Saflufenacil 75 g ai or ae/ha",100%
same,% Control,"[4]; Trial Bridge 2, 21 DAA, compound 560 g ae/ha + Trifludimoxazin 12.5 g ai or ae/ha",100%
same,% Control,"[4]; Trial Bridge 2, 21 DAA, compound 560 g ae/ha + Trifludimoxazin 50 g ai or ae/ha",100%
same,% Control,"[4]; Trial Bridge 2, 21 DAA, compound 560 g ae/ha, no mixing partner",100% and 92%
same,% Control,"[4]; Trial Bridge 2, 21 DAA, compound 1120 g ae/ha + Saflufenacil 25 g ai or ae/ha",100%
same,% Control,"[4]; Trial Bridge 2, 21 DAA, compound 1120 g ae/ha + Saflufenacil 75 g ai or ae/ha",100%
same,% Control,"[4]; Trial Bridge 2, 21 DAA, compound 1120 g ae/ha + Trifludimoxazin 12.5 g ai or ae/ha",100%
same,% Control,"[4]; Trial Bridge 2, 21 DAA, compound 1120 g ae/ha + Trifludimoxazin 50 g ai or ae/ha",100% and 95%
same,% Control,"[4]; Trial Bridge 2, 21 DAA, compound 1120 g ae/ha, no mixing partner",100% and 95%
same,% Control,"[4]; Trial Bridge 3, compound 560 g ae/ha + Sulfentrazone 347 g ai/ha, 21 DAA",100%
same,% Control,"[4]; Trial Bridge 3, compound 1120 g ae/ha + Sulfentrazone 347 g ai/ha, 21 DAA",100%
same,% Control,"[5]; compound 560 g ae/ha + Sulfentrazone 130 g ai or ae/ha, Trial Bridge 3",80% and 95% and 75%
same,% Control,"[5]; compound 560 g ae/ha + Sulfentrazone 347 g ai or ae/ha, Trial Bridge 3",75% and 85% and 90%
same,% Control,"[5]; compound 560 g ae/ha, no mixing partner, Trial Bridge 3",85% and 80%
same,% Control,"[5]; compound 1120 g ae/ha + Sulfentrazone 130 g ai or ae/ha, Trial Bridge 3",95% and 90%
same,% Control,"[5]; compound 1120 g ae/ha + Sulfentrazone 347 g ai or ae/ha, Trial Bridge 3",90% and 85%
same,% Control,"[5]; compound 1120 g ae/ha, no mixing partner, Trial Bridge 3",95% and 85%
same,% Control,"[5]; Trial Bridge 1, compound 560 g ae/ha + Arylex 5 g ai or ae/ha, single replicate",85% (2×) and 90%
same,% Control,"[5]; Trial Bridge 1, compound 560 g ae/ha + Glufosinate 600 g ai or ae/ha, single replicate",100% (2×) and 95%
same,% Control,"[5]; Trial Bridge 1, compound 560 g ae/ha + Glyphosate 1120 g ai or ae/ha, single replicate",100% and 95%
same,% Control,"[5]; Trial Bridge 1, compound 560 g ae/ha + Mesotrione 150 g ai or ae/ha, single replicate",98% and 100% and 95%
same,% Control,"[5]; Trial Bridge 1, compound 560 g ae/ha + diclosulam 35 g ai or ae/ha, single replicate",100% (2×) and 99%
same,% Control,"[5]; Trial Bridge 1, compound 560 g ae/ha, no mixing partner, single replicate",85%
same,% Control,"[5]; Trial Bridge 1, compound 1120 g ae/ha + Arylex 5 g ai or ae/ha, single replicate",90% (2×) and 85%
same,% Control,"[5]; Trial Bridge 1, compound 1120 g ae/ha + Glufosinate 600 g ai or ae/ha, single replicate",100% and 98% and 90%
same,% Control,"[5]; Trial Bridge 1, compound 1120 g ae/ha + Glyphosate 1120 g ai or ae/ha, single replicate",100%
same,% Control,"[5]; Trial Bridge 1, compound 1120 g ae/ha + Mesotrione 150 g ai or ae/ha, single replicate",100%
same,% Control,"[5]; Trial Bridge 1, compound 1120 g ae/ha + diclosulam 35 g ai or ae/ha, single replicate",100% (2×) and 98%
same,% Control,"[5]; Trial Bridge 1, compound 1120 g ae/ha, no mixing partner, single replicate",90% and 85% and 97%
same,% Control,"[5]; Trial Bridge 2, compound 560 g ae/ha + Saflufenacil 25 g ai or ae/ha",80% and 70%
same,% Control,"[5]; Trial Bridge 2, compound 560 g ae/ha + Saflufenacil 75 g ai or ae/ha",100%
same,% Control,"[5]; Trial Bridge 2, compound 560 g ae/ha + Trifludimoxazin 12.5 g ai or ae/ha",80% and 70%
same,% Control,"[5]; Trial Bridge 2, compound 560 g ae/ha + Trifludimoxazin 50 g ai or ae/ha",95% and 99%
same,% Control,"[5]; Trial Bridge 2, compound 560 g ae/ha, mixing partner none",95%
same,% Control,"[5]; Trial Bridge 2, compound 1120 g ae/ha + Saflufenacil 25 g ai or ae/ha",50% and 75%
same,% Control,"[5]; Trial Bridge 2, compound 1120 g ae/ha + Saflufenacil 75 g ai or ae/ha",75% and 100%
same,% Control,"[5]; Trial Bridge 2, compound 1120 g ae/ha + Trifludimoxazin 12.5 g ai or ae/ha",85% and 90%
same,% Control,"[5]; Trial Bridge 2, compound 1120 g ae/ha + Trifludimoxazin 50 g ai or ae/ha",95%
same,% Control,"[5]; Trial Bridge 2, compound 1120 g ae/ha, mixing partner none",95% and 90%
